According to PMC7866230:
No constants are given. Whether binding was seen depends on the method and setting. Binding seen in cells or lysates may run through a third protein. Some entries that bind do so weakly or less than the wild type.

Amino acid sequences for entries named in this document (tags omitted).
UniProt Q9QZL0: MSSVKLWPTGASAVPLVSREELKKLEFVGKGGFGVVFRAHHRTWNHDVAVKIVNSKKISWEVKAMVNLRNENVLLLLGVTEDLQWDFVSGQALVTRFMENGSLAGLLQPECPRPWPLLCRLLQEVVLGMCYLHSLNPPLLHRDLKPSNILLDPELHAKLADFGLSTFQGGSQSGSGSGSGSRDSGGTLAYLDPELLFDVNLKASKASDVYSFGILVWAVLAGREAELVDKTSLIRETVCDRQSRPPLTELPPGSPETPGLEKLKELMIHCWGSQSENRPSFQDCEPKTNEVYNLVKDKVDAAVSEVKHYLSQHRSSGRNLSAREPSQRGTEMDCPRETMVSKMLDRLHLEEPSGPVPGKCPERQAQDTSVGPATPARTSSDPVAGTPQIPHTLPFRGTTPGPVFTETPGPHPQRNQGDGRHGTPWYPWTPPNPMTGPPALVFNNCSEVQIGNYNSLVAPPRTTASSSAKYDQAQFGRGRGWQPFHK

Target: receptor-interacting protein 3 (mouse (endogenous in Balb/C liver)) (UniProt Q9QZL0)
Experiment: co-IP; RIP3 immunoprecipitated (rabbit polyclonal anti-RIP3/RIP3K, protein A/G beads, overnight 4 °C) from 100 μg extract of liver homogenates of Balb/C mice treated with LPS and miR-675 or siCtrl; MLKL detected by Western blot

binding: binds
B1: Mixed Lineage Kinase Domain-Like Pseudokinase (protein, UniProt Q9D2Y4 1-472)
chain: MDKLGQIIKLGQLIYEQCEKMKYCRKQCQRLGNRVHGLLQPLQRLQAQGKKNLPDDITAALGRFDEVLKEANQQIEKFSKKSHIWKFVSVGNDKILFHEVNEKLRDVWEELLLLLQVYHWNTVSDVSQPASWQQEDRQDAEEDGNENMKVILMQLQISVEEINKTLKQCSLKPTQEIPQDLQIKEIPKEHLGPPWTKLKTSKMSTIYRGEYHRSPVTIKVFNNPQAESVGIVRFTFNDEIKTMKKFDSPNILRIFGICIDQTVKPPEFSIVMEYCELGTLRELLDREKDLTMSVRSLLVLRAARGLYRLHHSETLHRNISSSSFLVAGGYQVKLAGFELSKTQNSISRTAKSTKAERSSSTIYVSPERLKNPFCLYDIKAEIYSFGIVLWEIATGKIPFEGCDSKKIRELVAEDKKQEPVGQDCPELLREIINECRAHEPSQRPSVDGRSLSGRERILERLSAVEESTDKKV
